Laboratory results published in PubChem BioAssay AID504467 (National Center for Advancing Translational Sciences (NCATS), 2011).
The whole screen tested about 330,000 compounds, of which about 7,700 (2.3%) were called active. Inconclusive means that the source gave no clear call. Such entries were picked first, then a sample of the others. Calls come from the whole dose curve; as a rule, active = well fitted inhibition curve with a large enough effect; inconclusive = small, poorly fitted or top-dose-only effect, or effect the other way; inactive = flat fitted curve, though single readings scatter. Potencies beside an inconclusive call are fits to weak or partial responses and may not hold up.

Experiment: qHTS screen for small molecules that inhibit ELG1-dependent DNA repair in human embryonic kidney (HEK293T) cells expressing luciferase-tagged ELG1; note: nearly all actives have a fitted effect of over 55% in size
Details: HEK293T ELG1-luciferase reporter, luminescence, 16 h, DNA damage induced by 5-fluorouridine; series mostly up to 46.1 µM
Method in brief: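 Overnight (16 hr) co-exposure of 2,000 cells/well to 5-fluorouridine and compound at 37 °C preceded detection. Luciferase was quantified via ONE-Glo luminescence; loss of signal denotes inhibition.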
Potency is the fitted concentration of half-maximal effect.

SMILES | Potency
O=C(NC1CC2CCCC(C1)N2C(=O)Nc1ccccc1Cl)C1CC1 (stereo not drawn) | inactive
Cc1ccc(-c2nn(-c3ccccc3)cc2C2CC(c3cccs3)=NN2C(=O)CCC(=O)O)cc1 (stereo not drawn) | inconclusive: 18.4 µM [activator, partial curve, poor fit]
Cc1nn(Cc2ccc(C(=O)Nc3nccs3)cc2)c(C)c1Cl | inconclusive: 5.17 µM [inhibitor, partial curve, poor fit]
Cc1nc2ccccc2c(=O)n1/N=C/c1cn[nH]c1-c1ccccc1 | inconclusive: 18.3 µM [inhibitor, single point]
CCC(=O)NC(=S)NNC(=O)c1ccc([N+](=O)[O-])cc1 | inactive
O=C(Nc1ccccc1C(=O)N1CCCCCC1)c1ccccc1 | inconclusive: 7.3 µM [activator, full curve, poor fit]
C=CCNC(=S)N/N=C(\C)c1ccccn1 | active: 0.184 µM
COc1ccc(CNC(=O)C2CC(c3cccc([N+](=O)[O-])c3)=NO2)cc1 (stereo not drawn) | inconclusive: 20.6 µM [activator, partial curve]
COc1cccc(NC(=O)CN(C)C(=O)c2cc(-c3ccc(C)o3)nc3ccccc23)c1 | active: 6.51 µM
Cc1cc(C(=O)NC2CCCc3ccccc32)ccc1[N+](=O)[O-] (stereo not drawn) | inactive
CCCCSc1nc2sc3c(c2c(=O)n1-c1ccc(C)cc1)CCN(C)C3 | inconclusive: 29.1 µM [inhibitor, single point]
O=C(NCC(=O)N1CCN(Cc2ccccc2)CC1)c1ccc(Cl)cc1 | inconclusive: 14.6 µM [inhibitor, partial curve, poor fit]
COC(=O)CN1C(=O)C(O)(CC(=O)c2cccc(Br)c2)c2ccccc21 (stereo not drawn) | inactive
Cc1csc(SCC(=O)Nc2ccc(S(=O)(=O)N3CCCC3)cc2)n1 | inconclusive: 2.82 µM [inhibitor, full curve]
Cc1ccccc1N1CCN(c2ncnc3c2cnn3Cc2ccc(Cl)cc2)CC1 | inconclusive: 23.1 µM [inhibitor, single point]
O=C(COc1ccccc1)NCCn1ccc2ccccc21 | inconclusive: 23.1 µM [activator, partial curve, poor fit]
Cc1nn(Cc2ccc(F)cc2)c(C)c1NC(=O)c1cc(-c2ccc3c(c2)OCO3)on1 | inconclusive: 29.1 µM [inhibitor, single point]
C/C(=N\NC(=O)c1cc(Br)ccc1O)c1cccs1 | inconclusive: 5.8 µM [activator, partial curve]
COc1cccc(CNS(=O)(=O)/C=C/c2ccc(OC)c(OC)c2)c1 | inconclusive: 32.6 µM [inhibitor, single point]
COc1ccc(-n2cc(C(=O)c3ccccc3O)cn2)cc1 | inconclusive: 2.31 µM [activator, partial curve]
COc1ccc(OCC(=O)N2CCN(C(=O)c3ccc(F)cc3)CC2)cc1 | inactive
Cc1nc(CSc2nsc(/C=C/N(C)C)c2C#N)cs1 | inactive
COc1ccc(N2C(=O)c3ccccc3NC23CCC(C)CC3)cc1 (stereo not drawn) | inconclusive: 10.3 µM [activator, partial curve]

SMILES | Potency
Cc1ccc(C(O)(C(=O)NN(C(=O)c2ccccc2)c2ccccc2)c2ccc(C)cc2)cc1 | inactive
O=C(c1cccnc1)N1CCN(C/C=C/c2ccccc2)CC1 | inactive
COc1ccc(C2c3[nH]c4ccccc4c3C[C@H]3C(=O)N(c4ccccc4C(=O)NCCN4CCOCC4)C(=O)N23)cc1 (stereo partly drawn) | inconclusive: 20.6 µM [inhibitor, single point]
Cc1c(-c2ccccc2)c(=O)oc2cc(O)ccc12 | inactive
CC(C)CN(C(=O)c1ccc2c(c1)OCO2)C1CCS(=O)(=O)C1 (stereo not drawn) | inconclusive: 0.58 µM [activator, partial curve, poor fit]
COc1ccccc1NC(=S)N(Cc1ccc(C(=O)O)cc1)Cc1ccc(OC)c(OC)c1 | inconclusive: 11.6 µM [inhibitor, partial curve, poor fit]
O=C(Nc1ccc(F)c(Cl)c1)c1ccc2c(=O)n3c(nc2c1)CCCCC3 | inconclusive: 2.91 µM [activator, partial curve]
COc1ccc(-c2cc(C(=O)N3CCN(S(=O)(=O)c4ccccc4)CC3)[nH]n2)cc1 | inconclusive: 20.6 µM [inhibitor, single point]
CCNC(=S)N(CCc1c(C)[nH]c2ccccc12)Cc1cc(OC)c(OC)c(OC)c1 | inactive
Clc1ccc(Nc2nc(N3CCOCC3)nc(N3CCOCC3)n2)cc1Cl | active: 1.64 µM
O=C(CSc1ncn[nH]1)Nc1ccccc1Sc1ccccc1 | inactive
COc1ccc(Cn2c(=O)oc3ccc(C)cc32)cc1OC | inactive
C/C(CS(=O)(=O)c1ccccc1)=N\O | inactive
COc1cccc(NC(=O)Cc2nc(-c3ccccc3)sc2-c2ccc(C)cc2)c1 | inactive
CSc1ccccc1C(=O)N1CCC2(CC1)CC(=O)c1ccccc1O2 | inconclusive: 25.9 µM [inhibitor, single point]
O=C(c1ccccc1)N1CCN(C(=O)c2nn3c(C(F)(F)F)cc(-c4ccccc4)nc3c2Br)CC1 | inconclusive: 29.1 µM [inhibitor, single point]
O=C(CSCc1cccc(Br)c1)N/N=C/c1ccc2c(c1)OCO2 | inactive
CCNC(=S)N1CCc2cc(OC)c(OC)cc2C1COc1ccccc1OC (stereo not drawn) | inconclusive: 18.3 µM [inhibitor, partial curve]
COc1cccc(CN(C)CC2CCCN(CCc3ccccc3C)C2)c1 (stereo not drawn) | inactive
COc1ccc2c(c1OC)C(=O)N1N=C(c3ccccc3)CC21 (stereo not drawn) | inconclusive: 10.3 µM [activator, partial curve, poor fit]
O=C(c1ccc(F)cc1F)N1CCN(S(=O)(=O)c2ccc3c(c2)OCCO3)CC1 | inconclusive: 3.98 µM [inhibitor, partial curve, poor fit]
COc1cccc(N(CC(=O)NCc2ccco2)C(=O)CCC(=O)Nc2nccs2)c1 | inactive
CC(C)N(CCC(=O)c1ccc2ccccc2c1)Cc1ccccc1 | inactive

SMILES | Potency
CCc1ccc2nc(NC(=O)C3CCN(c4ncnc5sc(C)c(C)c45)CC3)sc2c1 | inconclusive: 8.2 µM [activator, partial curve]
CN(C(=O)CSc1ncnc2sc3c(c12)CCCC3)C1CCS(=O)(=O)C1 (stereo not drawn) | inconclusive: 29.1 µM [inhibitor, single point]
O=C(Nc1ccccc1)/C(=C\c1ccncc1)NC(=O)c1ccccc1 | inconclusive: 14.6 µM [activator, partial curve, poor fit]
C[C@@H]1CC(=O)[C@H]2CC(CO)=CCC[C@@H]2[C@@]1(C)CC/C(=C/CO)CO | inconclusive: 20.6 µM [inhibitor, single point]
Fc1ccc(OCc2nc3ccccc3s2)cc1 | inconclusive: 6.51 µM [activator, partial curve]
O=C(c1ccc2nccnc2c1)N1CCN(Cc2ccc3c(c2)OCO3)CC1 | inconclusive: 23.1 µM [inhibitor, partial curve, poor fit]
COc1ccc(CCn2nnc(-c3ccc(NC(C)=O)c(Cl)c3)n2)cc1 | inconclusive: 32.6 µM [activator, partial curve, poor fit]
CC1C(=O)N2CCCc3cc(S(=O)(=O)N4CCC(C(N)=O)CC4)cc1c32 (stereo not drawn) | inconclusive: 16.4 µM [activator, partial curve, poor fit]
Cc1ccccc1OCc1nc(-c2ccc(NC(=O)c3cccs3)cc2)no1 | inconclusive: 9.2 µM [activator, partial curve]
COc1cccc(NC(=O)CN(C)C(=O)c2cc3c(s2)CCC3)c1 | inconclusive: 10.3 µM [activator, partial curve, poor fit]
O=C(COc1ccc([N+](=O)[O-])cc1)NCCc1nc2ccccc2[nH]1 | inconclusive: 0.58 µM [activator, partial curve, poor fit]
COc1cccc(-c2ncc3ccccn23)c1 | inconclusive: 8.2 µM [activator, partial curve]
CCN(CC)S(=O)(=O)c1ccc(C)c(NC(=O)Cn2cnc3cc([N+](=O)[O-])ccc3c2=O)c1 | active: 16.4 µM
CC(C)(C)NC(=O)c1ccc2c(c1)N(CC(=O)N1CCN(c3ccccc3F)CC1)C(=O)C(C)(C)O2 | inconclusive: 12.6 µM [inhibitor, partial curve, poor fit]
Cc1ccc(C)c(N(C(=O)Cc2cccs2)C(C(=O)NC2CCCC2)c2ccc(C)o2)c1 (stereo not drawn) | inactive
CN(Cc1ccc(F)cc1)C(=O)CN1C(=O)c2ccccc2S1(=O)=O | inconclusive: 29.1 µM [activator, partial curve, poor fit]
CCN(CC)S(=O)(=O)c1ccc2[nH]c(=O)cc(C(=O)Nc3ccccc3N3CCCC3)c2c1 | inactive
COc1cc2c(cc1OC)C1(CCCC1)CNC2c1ccc([N+](=O)[O-])cc1 (stereo not drawn) | inconclusive: 18.3 µM [inhibitor, partial curve, poor fit]
CCOc1cccc(C(=O)Nc2nccs2)c1 | inconclusive: 11.6 µM [activator, partial curve]
COc1cccc(C(=O)OCC(=O)Nc2ccc3c(c2)OCCO3)c1 | inactive
O=C(Nc1cccnc1)c1ccc2c(c1)OCO2 | inconclusive: 13 µM [activator, partial curve]
COc1ccc(N2CCN(C(=O)Cn3nnc(-c4cccs4)n3)CC2)cc1 | inactive
